Measured values taken from patent US20040247689A1, “Process for preparing a pharmaceutical active ingredient with high specific surface area” (priority 2003, published 2004).
Like-named read-outs stand apart in the source and are kept apart here.

COC(=O)C1=C(C)NC(C)=C(C(=O)OC)C1c1ccccc1[N+](=O)[O-] [nifedipine, 1,4-dihydro-2,6-dimethyl-4-(2-nitrophenyl)-dimethyl ester]
S.S.A. (freezer storage, micronization repeated twice with subsequent freezing (Example 2)): at least 6.5 m^2/g | S.S.A. (micronized under same conditions without being put in a freezer (comparative Example 4)): 4.6 m^2/g | initial S.S.A. (stored in freezer at about -10 to -20° C. about 24 hours, micronized once (Example 1)): at least 5.5 m^2/g
